The target of experiment [1] is GFP-labeled αB-crystallin (αB-c-TEV site-GFP-His tag) (UniProt P02511). The experiment can be described thus: microfluidic diffusional sizing; GFP-αB-c alone, 21 °C; average hydrodynamic radius of the oligomer distribution; both purified.
The target is the same in experiment [2]. The experiment can be described thus: native MS; samples at 20 μM electrosprayed, modified quadrupole-TOF; spectra fit with UniDec, oligomer mass list of 5 to 50 subunits; both purified.

Amino acid sequences for entries named in this document (tags omitted).
UniProt P02511: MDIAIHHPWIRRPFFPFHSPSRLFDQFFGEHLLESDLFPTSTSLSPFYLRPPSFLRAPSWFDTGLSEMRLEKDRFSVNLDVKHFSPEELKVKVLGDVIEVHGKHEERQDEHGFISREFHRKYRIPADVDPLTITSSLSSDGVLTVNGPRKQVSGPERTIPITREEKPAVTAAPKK

No constants are given. Whether binding was seen depends on the method and setting. Some entries that bind do so weakly or less than the wild type.

For the substance “GFP-labeled αB-crystallin (αB-c-TEV site-GFP-His tag) (from UniProt P02511 1-175)”, the binding entry in experiment [1] and in experiment [2] was “binds” in each case.

The values above are taken from publication PMC8463877.
